Paper PMC5675994
These are yes or no findings as the source states them, for the method shown. In cells and extracts the contact can be indirect. These calls come from enrichment with a bait or labelling near it, and not all partners need be listed. For some assays here: Where a sequence is shown, tags or fusion partners need not be part of it.

Protein sequences, listed by entry. Tags and fused reporters are not part of them. Lines headed by an entry give the natural chain unless they say otherwise; changes in a name come on top.
UniProt Q07540: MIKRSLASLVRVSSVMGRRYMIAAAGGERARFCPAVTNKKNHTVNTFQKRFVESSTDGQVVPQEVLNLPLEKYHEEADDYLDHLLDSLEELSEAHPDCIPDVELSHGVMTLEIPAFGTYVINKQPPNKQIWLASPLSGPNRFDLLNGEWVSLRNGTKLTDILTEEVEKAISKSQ

T1: Nfs1-His6 (S. cerevisiae) (UniProt P25374)
T1 sequence: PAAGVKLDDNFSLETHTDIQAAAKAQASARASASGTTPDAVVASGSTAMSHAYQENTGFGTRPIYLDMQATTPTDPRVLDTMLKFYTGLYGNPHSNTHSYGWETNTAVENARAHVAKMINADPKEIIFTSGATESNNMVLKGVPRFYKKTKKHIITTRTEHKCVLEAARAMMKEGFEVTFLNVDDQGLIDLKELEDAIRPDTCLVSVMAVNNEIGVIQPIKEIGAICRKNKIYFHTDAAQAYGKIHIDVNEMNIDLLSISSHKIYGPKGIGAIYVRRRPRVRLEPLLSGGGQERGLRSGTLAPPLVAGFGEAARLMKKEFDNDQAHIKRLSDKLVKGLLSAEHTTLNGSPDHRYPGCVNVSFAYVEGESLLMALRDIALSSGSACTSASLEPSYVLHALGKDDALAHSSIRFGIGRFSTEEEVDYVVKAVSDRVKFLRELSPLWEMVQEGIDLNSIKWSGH


What was measured:
[1] = target: Yfh1-His6 (S. cerevisiae) (UniProt Q07540); assay: affinity purification with mass spectrometry; Yfh1-His6 held on Ni-NTA superflow agarose from French-press lysate (108,000xg supernatant) of isolated mitochondria of the Yfh1-His6 yeast strain; 50 mM TrisCl pH 7.5, 80 mM KCl, 10% glycerol, wash 40 mM imidazole with 0.1% Triton X-100, elution 400 mM imidazole; eluate analysed by LC-MS/MS
[2] = target: T1, Nfs1-His6 (S. cerevisiae); assay: affinity purification with mass spectrometry; Nfs1-His6 held on Ni-NTA superflow agarose from sonicated, cleared lysate of isolated mitochondria of the Gal-Nfs1-His6 yeast strain; 50 mM TrisCl pH 7.5, 80 mM KCl, 10% glycerol, wash 40 mM imidazole, elution 400 mM imidazole; eluate analysed by LC-MS/MS

Row | Binder | binding [1] | binding [2]
1 | Citrate synthase, mitochondrial (protein, UniProt P00890 38-479) SSASEQTLKERFAEIIPAKAEEIKKFKKEHGKTVIGEVLLEQAYGGMRGIKGLVWEGSVLDPEEGIRFRGRTIPEIQRELPKAEGSTEPLPEALFWLLLTGEIPTDAQVKALSADLAARSEIPEHVIQLLDSLPKDLHPMAQFSIAVTALESESKFAKAYAQGVSKKEYWSYTFEDSLDLLGKLPVIASKIYRNVFKDGKITSTDPNADYGKNLAQLLGYENKDFIDLMRLYLTIHSDHEGGNVSAHTTHLVGSALSSPYLSLAAGLNGLAGPLHGRANQEVLEWLFKLREEVKGDYSKETIEKYLWDTLNAGRVVPGYGHAVLRKTDPRYTAQREFALKHFPDYELFKLVSTIYEVAPGVLTKHGKTKNPWPNVDSHSGVLLQYYGLTEASFYTVLFGVARAIGVLPQLIIDRAVGAPIERPKSFSTEKYKELVKKIESKN | binds | binds
2 | Carbon catabolite-derepressing protein kinase (protein, UniProt P06782 1-633) MSSNNNTNTAPANANSSHHHHHHHHHHHHHGHGGSNSTLNNPKSSLADGAHIGNYQIVKTLGEGSFGKVKLAYHTTTGQKVALKIINKKVLAKSDMQGRIEREISYLRLLRHPHIIKLYDVIKSKDEIIMVIEYAGNELFDYIVQRDKMSEQEARRFFQQIISAVEYCHRHKIVHRDLKPENLLLDEHLNVKIADFGLSNIMTDGNFLKTSCGSPNYAAPEVISGKLYAGPEVDVWSCGVILYVMLCRRLPFDDESIPVLFKNISNGVYTLPKFLSPGAAGLIKRMLIVNPLNRISIHEIMQDDWFKVDLPEYLLPPDLKPHPEEENENNDSKKDGSSPDNDEIDDNLVNILSSTMGYEKDEIYESLESSEDTPAFNEIRDAYMLIKENKSLIKDMKANKSVSDELDTFLSQSPPTFQQQSKSHQKSQVDHETAKQHARRMASAITQQRTYHQSPFMDQYKEEDSTVSILPTSLPQIHRANMLAQGSPAASKISPLVTKKSKTRWHFGIRSRSYPLDVMGEIYIALKNLGAEWAKPSEEDLWTIKLRWKYDIGNKTNTNEKIPDLMKMVIQLFQIETNNYLVDFKFDGWESSYGDDTTVSNISEDEMSTFSAYPFLHLTTKLIMELAVNSQSN | binds | binds

Second part, the binder after the results:

Row | binding [1] | binding [2] | Binder
3 | binds | binds | Cytochrome b2, mitochondrial (protein, UniProt P00175 81-591) EPKLDMNKQKISPAEVAKHNKPDDCWVVINGYVYDLTRFLPNHPGGQDVIKFNAGKDVTAIFEPLHAPNVIDKYIAPEKKLGPLQGSMPPELVCPPYAPGETKEDIARKEQLKSLLPPLDNIINLYDFEYLASQTLTKQAWAYYSSGANDEVTHRENHNAYHRIFFKPKILVDVRKVDISTDMLGSHVDVPFYVSATALCKLGNPLEGEKDVARGCGQGVTKVPQMISTLASCSPEEIIEAAPSDKQIQWYQLYVNSDRKITDDLVKNVEKLGVKALFVTVDAPSLGQREKDMKLKFSNTKAGPKAMKKTNVEESQGASRALSKFIDPSLTWKDIEELKKKTKLPIVIKGVQRTEDVIKAAEIGVSGVVLSNHGGRQLDFSRAPIEVLAETMPILEQRNLKDKLEVFVDGGVRRGTDVLKALCLGAKGVGLGRPFLYANSCYGRNGVEKAIEILRDEIEMSMRLLGVTSIAELKPDLLDLSTLKARTVGVPNDVLYNEVYEGPTLTEFEDA
4 | binds | binds | Ketol-acid reductoisomerase, mitochondrial (protein, UniProt P06168 48-395) LKQINFGGTVETVYERADWPREKLLDYFKNDTFALIGYGSQGYGQGLNLRDNGLNVIIGVRKDGASWKAAIEDGWVPGKNLFTVEDAIKRGSYVMNLLSDAAQSETWPAIKPLLTKGKTLYFSHGFSPVFKDLTHVEPPKDLDVILVAPKGSGRTVRSLFKEGRGINSSYAVWNDVTGKAHEKAQALAVAIGSGYVYQTTFEREVNSDLYGERGCLMGGIHGMFLAQYDVLRENGHSPSEAFNETVEEATQSLYPLIGKYGMDYMYDACSTTARRGALDWYPIFKNALKPVFQDLYESTKNGTETKRSLEFNSQPDYREKLEKELDTIRNMEIWKVGKEVRKLRPENQ
